These results are taken from the supplement of paper PMC11006884.

Sequences of proteins named here, by UniProt entry; tags and fusion partners are left off. A change or cut given only in a name is not applied to a line headed by its entry.
UniProt P39687: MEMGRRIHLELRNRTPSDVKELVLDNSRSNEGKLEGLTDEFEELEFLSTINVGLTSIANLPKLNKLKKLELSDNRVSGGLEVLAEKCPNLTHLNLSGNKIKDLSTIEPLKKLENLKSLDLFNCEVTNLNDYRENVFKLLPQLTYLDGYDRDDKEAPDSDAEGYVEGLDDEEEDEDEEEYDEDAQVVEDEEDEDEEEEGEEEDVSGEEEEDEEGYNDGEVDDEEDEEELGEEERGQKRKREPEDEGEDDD
UniProt P35251: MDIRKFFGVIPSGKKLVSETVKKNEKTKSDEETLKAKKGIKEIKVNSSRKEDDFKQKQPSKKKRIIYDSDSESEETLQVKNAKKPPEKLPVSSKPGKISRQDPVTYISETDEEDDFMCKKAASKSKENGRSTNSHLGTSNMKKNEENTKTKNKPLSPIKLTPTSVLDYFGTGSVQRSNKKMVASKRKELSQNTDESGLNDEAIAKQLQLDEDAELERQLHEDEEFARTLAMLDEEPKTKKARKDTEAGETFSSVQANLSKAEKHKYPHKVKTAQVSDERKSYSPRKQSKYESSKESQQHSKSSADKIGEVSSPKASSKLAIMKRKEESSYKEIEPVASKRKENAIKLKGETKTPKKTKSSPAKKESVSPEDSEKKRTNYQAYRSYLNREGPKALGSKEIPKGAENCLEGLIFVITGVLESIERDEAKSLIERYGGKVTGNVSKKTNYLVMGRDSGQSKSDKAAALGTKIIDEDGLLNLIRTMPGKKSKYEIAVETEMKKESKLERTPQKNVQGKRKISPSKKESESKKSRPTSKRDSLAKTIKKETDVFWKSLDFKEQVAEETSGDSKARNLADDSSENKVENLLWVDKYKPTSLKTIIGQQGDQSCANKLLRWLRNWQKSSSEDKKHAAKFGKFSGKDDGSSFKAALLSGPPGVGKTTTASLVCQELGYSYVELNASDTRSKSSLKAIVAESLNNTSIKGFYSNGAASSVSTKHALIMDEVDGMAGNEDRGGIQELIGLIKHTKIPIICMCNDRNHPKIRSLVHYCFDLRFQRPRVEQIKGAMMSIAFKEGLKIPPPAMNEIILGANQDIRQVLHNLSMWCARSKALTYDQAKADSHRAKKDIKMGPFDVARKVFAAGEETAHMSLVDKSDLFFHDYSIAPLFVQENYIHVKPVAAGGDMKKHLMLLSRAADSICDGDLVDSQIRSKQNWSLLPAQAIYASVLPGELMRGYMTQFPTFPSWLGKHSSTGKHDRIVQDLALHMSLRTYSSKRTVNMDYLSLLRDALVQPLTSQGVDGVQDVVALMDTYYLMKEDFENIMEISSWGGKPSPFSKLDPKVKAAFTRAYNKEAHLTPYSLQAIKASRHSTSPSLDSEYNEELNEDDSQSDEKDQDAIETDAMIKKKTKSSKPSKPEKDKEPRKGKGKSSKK
UniProt P40227, whole entry, looked up: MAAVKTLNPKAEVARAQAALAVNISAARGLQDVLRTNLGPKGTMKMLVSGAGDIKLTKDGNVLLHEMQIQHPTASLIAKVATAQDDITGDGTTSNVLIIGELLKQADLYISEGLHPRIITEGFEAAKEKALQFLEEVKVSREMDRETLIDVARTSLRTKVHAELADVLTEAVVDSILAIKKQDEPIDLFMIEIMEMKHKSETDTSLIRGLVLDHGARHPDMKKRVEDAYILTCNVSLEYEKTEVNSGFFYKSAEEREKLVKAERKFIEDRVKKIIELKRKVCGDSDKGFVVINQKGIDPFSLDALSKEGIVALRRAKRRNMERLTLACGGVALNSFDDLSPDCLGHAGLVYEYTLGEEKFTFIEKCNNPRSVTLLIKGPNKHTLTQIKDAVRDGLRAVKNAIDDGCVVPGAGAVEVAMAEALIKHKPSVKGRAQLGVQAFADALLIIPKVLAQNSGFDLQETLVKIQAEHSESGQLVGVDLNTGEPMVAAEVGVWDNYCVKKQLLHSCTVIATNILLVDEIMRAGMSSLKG
UniProt P41252: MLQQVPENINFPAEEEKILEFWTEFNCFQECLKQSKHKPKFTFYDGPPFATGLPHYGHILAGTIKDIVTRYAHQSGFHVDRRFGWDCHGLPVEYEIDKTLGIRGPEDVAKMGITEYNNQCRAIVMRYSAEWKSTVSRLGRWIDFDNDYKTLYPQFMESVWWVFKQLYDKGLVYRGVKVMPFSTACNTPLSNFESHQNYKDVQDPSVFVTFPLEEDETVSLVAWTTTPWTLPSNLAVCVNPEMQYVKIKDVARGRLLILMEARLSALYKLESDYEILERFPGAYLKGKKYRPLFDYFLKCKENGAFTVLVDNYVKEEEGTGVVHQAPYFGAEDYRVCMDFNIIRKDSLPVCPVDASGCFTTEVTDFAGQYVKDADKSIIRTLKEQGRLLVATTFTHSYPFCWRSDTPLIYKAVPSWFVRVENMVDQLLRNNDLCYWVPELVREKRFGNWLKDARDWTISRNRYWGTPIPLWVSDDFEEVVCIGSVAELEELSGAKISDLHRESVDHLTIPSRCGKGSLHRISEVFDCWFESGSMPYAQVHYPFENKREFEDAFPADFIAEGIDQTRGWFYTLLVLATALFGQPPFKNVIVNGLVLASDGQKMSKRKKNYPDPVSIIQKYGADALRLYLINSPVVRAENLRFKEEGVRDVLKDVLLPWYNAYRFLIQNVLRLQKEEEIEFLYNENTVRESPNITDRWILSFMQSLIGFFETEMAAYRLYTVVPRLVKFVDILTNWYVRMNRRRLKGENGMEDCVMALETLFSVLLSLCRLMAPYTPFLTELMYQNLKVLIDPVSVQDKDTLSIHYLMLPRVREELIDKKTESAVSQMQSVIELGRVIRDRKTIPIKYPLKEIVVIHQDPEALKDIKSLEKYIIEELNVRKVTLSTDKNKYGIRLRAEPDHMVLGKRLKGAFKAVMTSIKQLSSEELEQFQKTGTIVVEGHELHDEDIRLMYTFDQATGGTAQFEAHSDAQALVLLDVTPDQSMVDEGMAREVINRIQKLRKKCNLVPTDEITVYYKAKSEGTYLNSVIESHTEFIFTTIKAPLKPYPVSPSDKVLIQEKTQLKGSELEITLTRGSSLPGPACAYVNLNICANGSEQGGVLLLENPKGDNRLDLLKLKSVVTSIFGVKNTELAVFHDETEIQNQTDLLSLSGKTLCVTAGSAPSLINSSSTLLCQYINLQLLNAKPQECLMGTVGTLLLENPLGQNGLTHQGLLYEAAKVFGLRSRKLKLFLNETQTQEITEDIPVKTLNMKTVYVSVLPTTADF
UniProt P34897: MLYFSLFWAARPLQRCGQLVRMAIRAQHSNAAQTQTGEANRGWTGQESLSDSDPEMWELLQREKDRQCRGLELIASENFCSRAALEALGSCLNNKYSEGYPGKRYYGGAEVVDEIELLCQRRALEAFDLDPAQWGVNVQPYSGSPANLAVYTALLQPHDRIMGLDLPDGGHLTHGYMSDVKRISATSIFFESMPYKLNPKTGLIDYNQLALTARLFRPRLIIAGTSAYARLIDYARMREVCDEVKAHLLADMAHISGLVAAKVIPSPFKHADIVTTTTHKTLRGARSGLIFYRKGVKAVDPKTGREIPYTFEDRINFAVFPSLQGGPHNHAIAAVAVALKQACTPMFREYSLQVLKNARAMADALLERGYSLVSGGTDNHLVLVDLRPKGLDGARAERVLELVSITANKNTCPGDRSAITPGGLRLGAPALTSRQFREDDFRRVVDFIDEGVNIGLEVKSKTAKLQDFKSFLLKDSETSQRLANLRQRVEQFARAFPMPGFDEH
UniProt P31150: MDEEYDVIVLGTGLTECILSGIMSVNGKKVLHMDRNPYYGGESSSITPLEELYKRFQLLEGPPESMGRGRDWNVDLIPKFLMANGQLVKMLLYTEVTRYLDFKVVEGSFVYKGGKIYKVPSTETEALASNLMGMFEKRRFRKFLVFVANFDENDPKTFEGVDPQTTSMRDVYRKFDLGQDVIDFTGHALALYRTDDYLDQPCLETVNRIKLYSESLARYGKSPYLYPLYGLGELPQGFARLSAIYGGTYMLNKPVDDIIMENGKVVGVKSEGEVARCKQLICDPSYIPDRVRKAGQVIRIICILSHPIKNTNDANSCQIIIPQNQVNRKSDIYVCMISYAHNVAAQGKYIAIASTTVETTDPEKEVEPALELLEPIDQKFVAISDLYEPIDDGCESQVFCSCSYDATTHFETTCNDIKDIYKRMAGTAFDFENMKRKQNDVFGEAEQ
UniProt P35637: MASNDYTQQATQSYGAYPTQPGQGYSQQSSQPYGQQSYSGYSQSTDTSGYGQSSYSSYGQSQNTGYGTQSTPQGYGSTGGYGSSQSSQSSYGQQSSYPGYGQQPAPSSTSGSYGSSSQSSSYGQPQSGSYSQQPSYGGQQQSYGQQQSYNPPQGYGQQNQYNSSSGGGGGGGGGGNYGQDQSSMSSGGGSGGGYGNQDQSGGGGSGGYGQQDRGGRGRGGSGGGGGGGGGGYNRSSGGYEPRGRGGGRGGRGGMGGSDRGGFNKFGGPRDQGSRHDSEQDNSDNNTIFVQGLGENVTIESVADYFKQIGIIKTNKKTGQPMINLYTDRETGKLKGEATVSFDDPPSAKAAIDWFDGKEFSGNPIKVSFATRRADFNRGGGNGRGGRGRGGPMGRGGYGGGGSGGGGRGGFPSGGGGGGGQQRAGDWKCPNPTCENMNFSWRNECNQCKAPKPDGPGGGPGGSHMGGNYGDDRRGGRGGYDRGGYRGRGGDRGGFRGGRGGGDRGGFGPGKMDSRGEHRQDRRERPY
UniProt P41212: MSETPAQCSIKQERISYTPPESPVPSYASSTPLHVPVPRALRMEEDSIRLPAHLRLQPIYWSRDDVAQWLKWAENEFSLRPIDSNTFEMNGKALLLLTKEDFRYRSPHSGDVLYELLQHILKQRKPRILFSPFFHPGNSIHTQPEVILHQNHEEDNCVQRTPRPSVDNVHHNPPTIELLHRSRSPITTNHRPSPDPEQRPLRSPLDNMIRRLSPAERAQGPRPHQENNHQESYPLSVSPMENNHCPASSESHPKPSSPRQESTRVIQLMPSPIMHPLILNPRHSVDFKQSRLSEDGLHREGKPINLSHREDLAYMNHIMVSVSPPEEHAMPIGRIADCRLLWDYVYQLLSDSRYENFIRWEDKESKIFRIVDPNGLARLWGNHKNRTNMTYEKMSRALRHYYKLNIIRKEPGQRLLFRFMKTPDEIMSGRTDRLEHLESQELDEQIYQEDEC
UniProt P32321: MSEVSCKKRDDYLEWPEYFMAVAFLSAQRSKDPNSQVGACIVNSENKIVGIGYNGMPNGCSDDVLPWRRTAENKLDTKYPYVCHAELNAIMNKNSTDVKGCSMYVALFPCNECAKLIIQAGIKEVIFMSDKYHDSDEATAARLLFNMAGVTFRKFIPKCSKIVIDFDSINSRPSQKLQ
UniProt P42702: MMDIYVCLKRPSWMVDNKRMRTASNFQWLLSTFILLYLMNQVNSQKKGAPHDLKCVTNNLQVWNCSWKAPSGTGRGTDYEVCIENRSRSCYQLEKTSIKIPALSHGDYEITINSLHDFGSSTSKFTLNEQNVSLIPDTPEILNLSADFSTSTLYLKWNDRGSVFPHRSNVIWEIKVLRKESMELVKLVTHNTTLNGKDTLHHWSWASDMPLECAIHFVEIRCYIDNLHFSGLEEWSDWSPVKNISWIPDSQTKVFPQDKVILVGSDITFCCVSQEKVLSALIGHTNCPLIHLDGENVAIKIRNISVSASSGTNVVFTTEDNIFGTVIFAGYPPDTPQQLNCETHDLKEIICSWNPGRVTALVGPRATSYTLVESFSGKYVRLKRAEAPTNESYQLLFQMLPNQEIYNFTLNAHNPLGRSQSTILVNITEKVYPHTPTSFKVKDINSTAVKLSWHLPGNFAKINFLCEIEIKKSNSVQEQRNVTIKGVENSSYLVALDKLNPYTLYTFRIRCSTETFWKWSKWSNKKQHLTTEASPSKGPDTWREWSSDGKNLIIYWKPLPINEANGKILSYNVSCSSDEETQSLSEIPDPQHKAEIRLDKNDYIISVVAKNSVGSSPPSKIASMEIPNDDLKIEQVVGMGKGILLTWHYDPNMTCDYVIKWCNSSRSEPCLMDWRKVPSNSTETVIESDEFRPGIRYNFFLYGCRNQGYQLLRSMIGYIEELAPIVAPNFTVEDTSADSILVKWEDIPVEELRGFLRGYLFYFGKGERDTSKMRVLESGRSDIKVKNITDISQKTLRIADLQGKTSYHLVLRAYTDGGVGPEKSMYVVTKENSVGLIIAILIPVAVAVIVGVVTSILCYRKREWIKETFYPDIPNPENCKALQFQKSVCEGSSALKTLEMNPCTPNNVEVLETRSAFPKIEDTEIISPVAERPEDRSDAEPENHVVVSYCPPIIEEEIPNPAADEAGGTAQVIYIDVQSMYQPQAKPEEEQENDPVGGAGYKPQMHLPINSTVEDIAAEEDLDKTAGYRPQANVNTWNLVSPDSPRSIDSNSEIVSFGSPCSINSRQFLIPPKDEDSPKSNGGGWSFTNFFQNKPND
UniProt P35244: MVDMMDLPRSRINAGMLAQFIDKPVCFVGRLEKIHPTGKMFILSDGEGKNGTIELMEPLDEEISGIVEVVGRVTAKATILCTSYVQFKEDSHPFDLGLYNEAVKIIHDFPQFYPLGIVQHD

Most of the targets with a hit are listed elsewhere, so they are rarer here than in the full data. This is a noisy data set. The entries are a selection whose mix differs from that of the whole data set.

Compound in the assay: COC(=O)/C=C/c1ccccc1 [methyl cinnamate]
Description: log2 ratio of iodoacetamide-alkyne labeling of the cysteine site, DMSO over compound (competition); higher = stronger covalent engagement of the cysteine by the compound, active = 1 or more. As to conditions: 500 µM; treatment time 1 h; system: HEK293T cell lysate. The essentials: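 HEK293T lysate at 2 mg/mL was treated with vehicle or electrophile (500 µM) for 1 h at ambient temperature, then labelled with iodoacetamide alkyne (1 h), clicked to sCIP-TMT reagents, pooled, digested with trypsin overnight at 37 °C, enriched on streptavidin and eluted with acid. Peptides were analysed by Orbitrap Eclipse LC-MS/MS with FAIMS and quantified in FragPipe, using duplicate channels and three replicates, with cysteines quantified in only one replicate excluded. The log2 competition ratio for each cysteine is the mean control-channel reporter intensity divided by the mean compound-channel reporter intensity.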
On to CA8 C200 (UniProt P35219), for which the “log2 ratio of iodoacetamide-alkyne labeling” value (shortened to “log2 ratio”) was inactive: -0.101.

With HMOX2 C127 (UniProt P30519), the “log2 ratio” value was inactive: 0.0666.

Consider ANP32A C123 (UniProt P39687), for which the “log2 ratio” value was inactive: 0.149.

Consider PPP2R1A C174 (UniProt P30153), for which the “log2 ratio” value is inactive: 0.241.

As for UniProt P35568_C494, the “log2 ratio” value was inactive: -0.0901.

For the target RFC2 C7 (UniProt P35250), the “log2 ratio” value is inactive: 0.299.

With ETFB C71 (UniProt P38117), the “log2 ratio” value is inactive: 0.0937.

Turning to LRPPRC C500 (UniProt P42704), the “log2 ratio” value was inactive: 0.15.

Consider RFC1 C607 (UniProt P35251), for which the “log2 ratio” value is inactive: 0.233.

Take SDHA C266 (UniProt P31040): the “log2 ratio” value was inactive: 0.0638.

As for CA8 C266 (UniProt P35219), the “log2 ratio” value is inactive: 0.0512.

CCT6A C282 (UniProt P40227): the “log2 ratio” value was inactive: 0.419.

With IARS C400 (UniProt P41252), the “log2 ratio” value was inactive: -0.0419.

MYH10 C1238 (UniProt P35580): the “log2 ratio” value is inactive: 0.307.

For the target POLR2B C837 (UniProt P30876), the “log2 ratio” value is inactive: 0.247.

For the target MDH2 C89 (UniProt P40926), the “log2 ratio” value is inactive: 0.232.

Regarding RPL4 C96 (UniProt P36578), the “log2 ratio” value was inactive: 0.0605.

As for SHMT2 C80 (UniProt P34897), the “log2 ratio” value is inactive: -0.138.

As to ADSL C27 (UniProt P30566), the “log2 ratio” value is inactive: -0.119.

With FEN1 C163 (UniProt P39748), the “log2 ratio” value is inactive: 0.67.

On to GDI1 C202 (UniProt P31150), for which the “log2 ratio” value was inactive: 0.232.

With FUS C428 (UniProt P35637), the “log2 ratio” value was inactive: -0.0773.

Consider PPP2R1A C148 (UniProt P30153), for which the “log2 ratio” value is inactive: -0.0147.

Turning to MDH2 C212 (UniProt P40926), the “log2 ratio” value was inactive: 0.28.

As for ETV6 C8 (UniProt P41212), the “log2 ratio” value is inactive: 0.291.

As for PPIF C104 (UniProt P30405), the “log2 ratio” value was inactive: 0.24.

For the target NUP214 C1003 (UniProt P35658), the “log2 ratio” value is inactive: 0.304.

As to UniProt P42285_C650, the “log2 ratio” value is inactive: 0.148.

For DCTD C83 (UniProt P32321), the “log2 ratio” value is inactive: 0.0983.

In the case of CTNNA1 C720 (UniProt P35221), the “log2 ratio” value is inactive: 0.069.

As to CPOX C239 (UniProt P36551), the “log2 ratio” value was inactive: 0.0663.

With LIFR C1061 (UniProt P42702), the “log2 ratio” value is inactive: 0.483.

With RPL4 C208 (UniProt P36578), the “log2 ratio” value is inactive: 0.117.

As for ACAA2 C287 (UniProt P42765), the “log2 ratio” value was inactive: 0.0829.

Take RPA3 C26 (UniProt P35244): the “log2 ratio” value is inactive: -0.13.

For the target RFC2 C171 (UniProt P35250), the “log2 ratio” value is inactive: 0.0206.

With COIL C126 (UniProt P38432), the “log2 ratio” value was inactive: 0.273.

Turning to CASP3 C184 (UniProt P42574), the “log2 ratio” value was inactive: 0.15.
